The test can be described thus: qHTS Assay for Lipid Storage Modulators in Drosophila S3 Cells.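 For cell number change: cells counted by Cell Tracker Red CMTPX staining in the red channel.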 As to conditions: BODIPY lipid droplet fluorescence, 18-24 h; for cell number change: measured here: cell count max response, cells fed with added oleic acid. The procedure, abridged: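 Drosophila S3 cells loaded with oleic acid (400 uM, as added) and compounds at several concentrations; lipid droplets imaged by 488-nm laser-scanning cytometry, 500–530 nm intensity and object ratio to cell channel. Percent activity normalized to 20 uM Triacsin C.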
(In general: qHTS replaces the single test concentration by a dilution series.)

Where [1] appears, read: measured here: lipid fluorescence (Fed channel) AC50, cells fed with added oleic acid.
The mark [2] stands for this setting: measured here: cell number channel AC50, cells fed with added oleic acid.

“And” between values parts separate entries of the source, which are not always exact repeats. Equal values may be shown once. The list shows a part of the results. These are further read-outs of the screen, such as a control signal, another cell line or another target. No call is given for them. The list favours compounds with an active or inconclusive main result. Potencies come from curve fits of mixed quality, noted in brackets.

What is called AC50 is the midpoint of the concentration-response curve, whichever way the signal moves. A lower AC50 goes with activity at low concentration. As to `COc1c(Br)cc(Br)cc1C(=O)O`, the AC50 under setting [1] was 8.2 µM [falling, partial curve].

Turning to `COCCNC(=O)/C(C#N)=C/c1cc(C)n(-c2ccc(C)cc2)c1C`, the cell number change came out at 2.41%. Besides, the AC50 under setting [1] was 1.84 µM [falling, single point].

Turning to `O=C(CCS(=O)(=O)c1cc2c(cc1Cl)NC(=O)CO2)NCc1ccc(F)cc1`, the cell number change came to 5.76%. The AC50 under setting [1] was 6.51 µM [rising, single point]. Take `CCc1ccc(OC(C)C(=O)Nc2ccc(S(=O)(=O)Nc3nccs3)cc2)cc1` (configuration not stated): the cell number change was -5.22%. Besides, under setting [1], the concentration at half-maximal activity (AC50) is 0.58 µM [falling, single point]. For `CCN(c1ccccc1)S(=O)(=O)c1ccc(C(=O)Nc2nnc(-c3ccco3)o2)cc1`, the cell number change was -18.5%. In addition, the AC50 under setting [1] was 14.6 µM [falling, single point]. Turning to `Cc1sc2ncn(CC(=O)NC3CCCCC3)c(=O)c2c1C`, the cell number change worked out at 15.3%. For the same molecule, under setting [1], the half-maximal activity concentration (AC50) is 0.326 µM [rising, full curve, poor fit]. Take `Cc1ccc(S(=O)(=O)c2c(N)n(NC(=O)c3ccccc3C)c3nc4ccccc4nc23)cc1`: the half-maximal activity concentration (AC50) is, setting by setting: under setting [2], 2.06 µM [rising, partial curve]; under setting [1], 2.59 µM [rising, partial curve]. As to `c1cnc(SCCCOc2ccc3ccccc3c2)nc1`, the cell number change turned out to be 58.4%. Also, the AC50 under setting [2] is 4.11 µM [rising, partial curve, poor fit]. Further, the AC50 under setting [1] is 29.1 µM [rising, single point].

On to `O=C(CNC(=O)c1cc2ccccc2o1)NCc1cccs1`, for which the cell number change is -69.7%. In addition, the concentration at half-maximal activity (AC50) under setting [2] is 29.1 µM [falling, single point]. For the molecule `CCN1C(=O)/C(=C2/Sc3ccccc3N2CCCS(=O)(=O)O)SC1=S`, the cell number change was -22% and 5.51%. Moreover, the half-maximal activity concentration (AC50) under setting [1] was 20.6 µM [falling, single point] and 25.9 µM [rising, single point]. With `COc1ccc(N2CC(C(=O)Nc3nnc(SCC(=O)NC(C)(C)C)s3)CC2=O)cc1` (configuration not stated), the cell number change is -0.44%. Besides, the AC50 under setting [1] was 6.51 µM [falling, single point]. As for `CCOc1ccc(C(=O)CSCC(=O)O)cc1`, the cell number change was -11.3%. Further, the AC50 under setting [1] was 6.51 µM [falling, single point].

Take `CCOC(=O)C1CCCN(CCC(=O)Nc2cc(OC)ccc2OC)C1` (configuration not stated): the cell number change is 19.9%. Also, the AC50 under setting [1] is 29.1 µM [rising, single point]. With `CN1C(C(=O)NCc2cccc(C(F)(F)F)c2)CC2Cn3c(nc4ccccc43)C21` (configuration not stated), the AC50 under setting [1] was 2.31 µM [rising, partial curve].

`Cc1nc2ccc(S(=O)(=O)NCC(=O)N(C)Cc3ccccc3)cc2s1`: the cell number change is -23.7%. Moreover, the AC50 under setting [1] is 32.6 µM [falling, single point].

On to `O=c1oc(CCCO)cc2ccc(C#Cc3ccsc3)cc12`, for which the cell number change was -10.3%. Besides, under setting [1], the AC50 is 0.146 µM [falling, full curve, poor fit]. Consider `CCOC(=O)c1nc2ccccc2s1`, for which the cell number change is 2.56%. Besides, the AC50 under setting [1] was 23.1 µM [rising, single point]. In the case of `O=C(c1ccccc1)n1ccc(-c2cnc(-c3ccccc3)s2)n1`, the AC50 was 2.06 µM [rising, partial curve] under setting [2] and 2.31 µM [rising, partial curve] under setting [1]. On to `Cc1nc2sc(C(c3ccco3)N3CCN(c4ccccc4F)CC3)c(O)n2n1` (configuration not stated), for which the cell number change came out at 13%. Also, under setting [2], the half-maximal activity concentration (AC50) is 3.66 µM [falling, single point]. Turning to `CC/C(=C/c1sc2ccc(C)cc2[n+]1CCO)SC`, the cell number change worked out at 17.7%. The half-maximal activity concentration (AC50) under setting [1] is 25.9 µM [rising, single point].

As for `Cc1ccc(/C=C/C(=O)OCC(=O)Nc2cccnc2Cl)cc1`, the cell number change was -17.6%. Further, the half-maximal activity concentration (AC50) under setting [1] is 0.461 µM [falling, single point]. For the molecule `Cc1cc(C)nc(SCC(=O)N/N=C\C(Br)=C\c2ccccc2)n1`, the cell number change is 164%. The AC50 under setting [2] was 29.1 µM [rising, single point]. In addition, the concentration at half-maximal activity (AC50) under setting [1] was 29.1 µM [rising, single point]. On to `Cc1ccc(S(=O)(=O)N2CCN(C(=O)C3CCCO3)CC2)cc1C` (configuration not stated), for which the cell number change is 39.8%. In addition, the AC50 under setting [2] was 10 µM [rising, partial curve]. Also, the AC50 under setting [1] is 8.91 µM [rising, partial curve]. For the molecule `CC(=O)NCCc1nc2ccccc2n1CCOc1cccc(C)c1`, the AC50 under setting [1] was 1.3 µM [rising, full curve, poor fit]. On to `COc1ccccc1C(=O)NN1C(=O)/C(=C/c2cccn2C)SC1=S`, for which the cell number change amounted to 5.55%. In addition, the half-maximal activity concentration (AC50) under setting [1] is 0.164 µM [rising, full curve, poor fit]. Turning to `O=C(NCc1cn2ccsc2n1)Nc1cccc(Cl)c1`, the cell number change is 18.8%. For the molecule `CCOC(=O)N1CCN(C(=O)/C=C/c2ccc(OC)cc2)CC1`, the cell number change is -13.7%. `COc1ccc(-c2cc(C(=O)Nc3ccc(O)cc3)c3ccccc3n2)cc1OC`: the cell number change is 1.22%. Besides, the half-maximal activity concentration (AC50) under setting [1] was 0.00461 µM [rising, full curve, poor fit]. Turning to `CCOC(=O)c1cc(-c2ccccc2C)nn1Cc1cc(CC)no1`, the cell number change was -14%. Moreover, under setting [1], the AC50 is 0.206 µM [rising, full curve]. With `CS(=O)(=O)c1ccc(Cl)c(NC(=O)CCCc2nc3ccccc3c(=O)[nH]2)c1`, the cell number change is 51.2%. Besides, the half-maximal activity concentration (AC50) under setting [2] is 13 µM [rising, partial curve]. For the same molecule, under setting [1], the AC50 was 2.06 µM [rising, partial curve, poor fit]. For `O=C(N/N=C/c1c(Cl)nc2ccccn2c1=O)c1cccnc1`, the cell number change was -15.3%. For the same molecule, the concentration at half-maximal activity (AC50) under setting [1] is 0.00461 µM [falling, full curve, poor fit]. For the molecule `COc1cccc(OC)c1C(=O)Nc1nc2ccc(S(C)(=O)=O)cc2s1`, the cell number change came out at 10.9%. As to `Cc1ccccc1CN1CCN(C(=O)c2ccco2)CC1`, the cell number change worked out at 57.7%. Also, the half-maximal activity concentration (AC50) under setting [2] was 16.4 µM [rising, single point]. In the case of `Cc1ccnc(NC(=O)c2cccc(NS(=O)(=O)c3ccccc3C)c2)c1`, the cell number change is -27.9%. For the same molecule, the AC50 under setting [1] was 29.1 µM [rising, single point].

Take `Cc1cccc(NC(=O)NC(C)C(c2cccs2)N2CCOCC2)c1` (configuration not stated): the cell number change was determined as 44%. The AC50 under setting [2] was 29.1 µM [rising, single point]. For the molecule `Cc1cc(C(=O)CN2C(=O)c3ccccc3C2=O)c(C)n1Cc1cccs1`, the cell number change is -26.1%. Further, the AC50 under setting [1] was 18.4 µM [falling, single point]. Take `CC(=O)c1ccc(S(=O)(=O)Nc2ccc(-c3cn4c(n3)SCC4)cc2)cc1`: the cell number change is -12.1%. Under setting [1], the AC50 is 0.517 µM [rising, single point].

`Fc1ccc(NC(=S)Nc2cc(-c3ccccc3)[nH]n2)cc1Cl`: the cell number change was 17.4%. Under setting [1], the half-maximal activity concentration (AC50) is 1.46 µM [rising, partial curve, poor fit].

Take `Cc1cc(NC(=O)c2cccc(S(=O)(=O)N3CCC(C)CC3)c2)no1`: the cell number change was -6.93%. Moreover, the AC50 under setting [2] was 3.26 µM [rising, single point]. The half-maximal activity concentration (AC50) under setting [1] is 29.1 µM [rising, single point]. `CC(C)c1nc(SCC(=O)Nc2cccc(C(F)(F)F)c2)c2c(=O)n(C)c(=O)n(C)c2n1`: the cell number change was -22.6%. Under setting [1], the concentration at half-maximal activity (AC50) was 29.1 µM [falling, single point]. Take `C/C(=N\NC(N)=O)c1ccc(Cl)cc1`: the cell number change was -29.4%. Also, the AC50 under setting [1] is 29.1 µM [falling, single point]. As to `NS(=O)(=O)c1ccc(CCNS(=O)(=O)c2cccc3nsnc23)cc1`, the cell number change is -1.35%. The AC50 under setting [1] was 6.51 µM [falling, single point]. For `COc1cccc(/C=C/C(=O)OCC(=O)c2ccc3c(c2)NC(=O)CO3)c1`, the cell number change amounted to 3.62%. As to `CCCCCn1c(=O)[nH]c2cc(C(=O)NCc3ccccn3)ccc2c1=O`, the cell number change is -20.6%. Under setting [1], the half-maximal activity concentration (AC50) was 0.00461 µM [falling, full curve, poor fit]. `O=S(=O)(c1ccccc1)N(CC1CO1)c1ccccc1` (configuration not stated): the cell number change was -18.9%. Moreover, the half-maximal activity concentration (AC50) under setting [1] is 29.1 µM [falling, single point]. Regarding `COC(=O)C(NC(=O)COc1ccccc1)(Nc1nc2c(s1)CCCC2)C(F)(F)F` (configuration not stated), the cell number change is -21.3%. Moreover, the half-maximal activity concentration (AC50) under setting [1] was 5.8 µM [falling, single point].

In the case of `CCOc1ccc(NC(=O)N(CCC(C)C)C2CCN(C(C)=O)CC2)cc1`, under setting [2], the AC50 is 3.26 µM [rising, single point]. Consider `N#Cc1cc(C#N)c(SCC(=O)N2CC(=O)Nc3ccccc32)nc1N`, for which the cell number change was 6.22%. In addition, under setting [1], the AC50 was 29.1 µM [falling, single point].

`NC(=NC1CCCCC1)c1ccc(Cl)cc1`: the AC50 is 1.03 µM [rising, full curve] under setting [2] and 0.92 µM [rising, full curve] under setting [1]. In the case of `COc1ccccc1NS(=O)(=O)c1cc(NC(=O)c2sccc2C)ccc1N1CCOCC1`, the cell number change was found to be 11.4%. The concentration at half-maximal activity (AC50) under setting [1] is 4.61 µM [rising, full curve]. With `O=C(COc1ccccc1C(=O)NCc1ccncc1)Nc1ccc(Br)cc1`, the cell number change worked out at 41.3%. The AC50 under setting [2] is 8.2 µM [rising, single point]. For `CCOc1ccc(N(CC(=O)N2CCN(c3ccccc3OC)CC2)S(=O)(=O)c2ccc(F)cc2)cc1`, the cell number change is -4.62%. For the same molecule, the AC50 under setting [1] is 18.4 µM [falling, single point]. Turning to `COc1cc(C)cc2oc(=O)c(CC(=O)N3CCN(C(=O)C4COc5ccccc5O4)CC3)c(C)c12` (configuration not stated), the cell number change came to 14.1%. Also, the half-maximal activity concentration (AC50) under setting [2] is 0.291 µM [rising, full curve, poor fit]. For the same molecule, the half-maximal activity concentration (AC50) under setting [1] is 4.61 µM [falling, single point]. Turning to `CCCCNC(=O)CSc1nc(N)c(C(=O)Nc2ccc(OC)cc2)s1`, the cell number change worked out at 3.15%. Also, the half-maximal activity concentration (AC50) under setting [1] was 1.64 µM [rising, partial curve, poor fit]. As for `Cc1ccnc(NC(=O)c2ccccc2NC(=O)c2ccccc2)c1`, the cell number change was 11.8%. In addition, under setting [1], the concentration at half-maximal activity (AC50) was 0.0291 µM [rising, full curve, poor fit]. Consider `CCc1noc(N)c1C(=O)Nc1ccc(Cl)cc1`, for which the cell number change is -3.36%. As to `CC(C)Oc1ccc(-c2cc(=O)[nH]c(=O)[nH]2)cc1`, the cell number change was determined as 3.25%. The AC50 under setting [1] is 5.8 µM [falling, partial curve]. For `Cc1ccsc1/C=N/Nc1ccc(F)cc1F`, the cell number change was -26.1%. Also, under setting [2], the concentration at half-maximal activity (AC50) was 0.184 µM [falling, full curve, poor fit]. Moreover, under setting [1], the AC50 is 0.517 µM [falling, full curve]. For the molecule `N#Cc1ccccc1OCC(=O)N1CCN(C(=O)c2ccco2)CC1`, the cell number change was -6.73%. On to `O=C(CCCc1ccccc1)NCCC1=CCCCC1`, for which the cell number change was -27.4%. Under setting [1], the concentration at half-maximal activity (AC50) is 20.6 µM [falling, single point].

Values taken from PubChem BioAssay AID2685 (National Center for Advancing Translational Sciences (NCATS), 2010).
